According to PubChem BioAssay AID2685 (National Center for Advancing Translational Sciences (NCATS), 2010):
The other results are listed elsewhere or left out. The main result of the screen is listed elsewhere. These columns were measured beside it and carry no call. The list favours compounds with an active or inconclusive main result. The note in brackets gives the kind of curve behind each potency; many fits are weak.

Assay: qHTS Assay for Lipid Storage Modulators in Drosophila S3 Cells;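 as to cell number change: cells counted by Cell Tracker Red CMTPX staining in the red channel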
Settings: BODIPY lipid droplet fluorescence, 18-24 h; for cell number change: measured here: cell count max response, cells fed with added oleic acid
Summary of the method: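 Drosophila S3 cells loaded with oleic acid (400 uM, as added) and compounds at several concentrations; lipid droplets imaged by 488-nm laser-scanning cytometry, 500–530 nm intensity and object ratio to cell channel. Percent activity normalized to 20 uM Triacsin C.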

[1] = measured here: cell number channel AC50, cells fed with added oleic acid
[2] = measured here: lipid fluorescence (Fed channel) AC50, cells fed with added oleic acid

SMILES	cell number change [%]	AC50 [1]	AC50 [2]
O=C(NN1C(=O)c2cc(Br)ccc2NC1c1cc(Br)cc(Br)c1O)c1ccncc1 (stereo unspecified)	38.9	7.31 µM [rising, partial curve]	8.2 µM [rising, partial curve]
O=C(COC(=O)COc1ccc(Cl)cc1Cl)NC1CCCCCC1	5.94		0.00461 µM [rising, full curve, poor fit]
Cc1nn(-c2ccccc2)c(Cl)c1C(=O)OC(C)C(=O)NC(=O)NC1CCCCC1 (stereo unspecified)	-16.1		29.1 µM [falling, single point]
CCOc1ccc(OCC(=O)NCc2n[nH]c(=O)c3ccccc23)cc1	225	29.1 µM [rising, partial curve]	
CC(C)C(=O)Nc1ccccc1Cc1ccccc1	32.1	5.8 µM [rising, single point]	
CCC(C)NC(=O)c1cc2cc3ccc(OC)cc3nc2s1 (stereo unspecified)	-14		29.1 µM [falling, partial curve, poor fit]
COc1ccc(N2CC(C(=O)Nc3ccccc3N3CCCC3)CC2=O)c(OC)c1 (stereo unspecified)	6		
O=C(O)CCN(Cc1ccccc1)S(=O)(=O)c1ccccc1Cl	-13.8	0.206 µM [falling, full curve, poor fit]	0.291 µM [falling, full curve]
C[C@H](NC(=O)C1CC(=O)N(c2ccc3c(c2)OCO3)C1)C(=O)NC1CCCCC1 (stereo partly specified)	6.35	1.16 µM [rising, full curve, poor fit]	
CCOc1ccc(NC(=O)c2ccc3c(=O)n4c(nc3c2)CCCCC4)cc1			0.116 µM [rising, single point]
Cc1ccc(NC(=O)Cc2cn3ccsc3n2)nc1	-6.08		
CC(C)NC(=O)COc1coc(CN2CCN(c3cccc(Cl)c3)CC2)cc1=O	16.7		18.4 µM [rising, partial curve]
CCN(CC)c1ccc(-c2n[nH]c(=S)n2-c2ccccc2C)cc1	155	11.6 µM [rising, partial curve, poor fit]	
CCC(C(=O)NCC1CCCO1)N(C(=O)CNS(=O)(=O)c1ccccc1)c1ccc(F)cc1 (stereo unspecified)	11.7		6.51 µM [rising, single point]
Cc1ccc(Sc2c(C=O)c3ccccc3n2C)cc1		0.92 µM [falling, full curve, poor fit]	0.82 µM [falling, full curve]
Cc1ccc(C)c(-n2sc3ccc(F)cc3c2=O)c1	-82.6	5.8 µM [falling, full curve]	20.6 µM [falling, single point]
Cc1cccc(OCC(=O)NCc2ccncc2)c1C	40.3	11.6 µM [rising, single point]	6.51 µM [rising, single point]
CCN(C(=O)CN1C(=O)c2ccc([N+](=O)[O-])cc2C1=O)C1CCS(=O)(=O)C1 (stereo unspecified)	2.5		
CN(CCCNC(=O)C1CCN(S(=O)(=O)c2cccc3nsnc23)CC1)Cc1ccccc1			18.4 µM [rising, single point]
N=c1n(Cc2ccccc2)c2ccccc2n1CC(O)c1ccccc1 (stereo unspecified)	-39.5	29.1 µM [falling, single point]	5.17 µM [falling, single point]
O=C(CSc1ccccc1[N+](=O)[O-])NC1CCS(=O)(=O)C1 (stereo unspecified)	-8.98	6.51 µM [rising, single point]	5.17 µM [falling, partial curve]

SMILES	cell number change [%]	AC50 [1]	AC50 [2]
CCCCNC(=O)Nc1cc(C)on1	3.94		
O=C(O)CCC(=O)N1CCN(c2ccccn2)CC1	49.9		
COc1ccc(NC(=O)c2ccc(C)cc2)cc1			0.731 µM [rising, full curve]
CCC1CCCCN1CCNC(=O)C1CCN(S(=O)(=O)c2cccc3nsnc23)CC1 (stereo unspecified)	-14.3		16.4 µM [rising, partial curve]
O=C(O)COc1ccc2oc3ccccc3c2c1	15		
Cc1cccc(NC(=O)CCNC(=O)c2ccc(Br)cc2)c1	38.9	11.6 µM [rising, partial curve, poor fit]	29.1 µM [rising, single point]
CN1CCN(c2ccc(NS(=O)(=O)c3ccc(Cl)cc3)cn2)CC1	-36.2	6.51 µM [falling, single point]	
COc1ccccc1C(=O)NNC(=S)Nc1ccccc1	2.25		
CCC1Oc2ccccc2N(CC(=O)NC2CCCCC2C)C1=O (stereo unspecified)			29.1 µM [falling, single point]
Cc1cc(C)c(S(=O)(=O)NCc2cccs2)cc1C	-8.01		23.1 µM [falling, single point]
Fc1ccc(/C=N/Nc2ccccn2)cc1	-33.3	29.1 µM [falling, single point]	
Cc1c(NC(=O)c2ccc3nsnc3c2)cccc1[N+](=O)[O-]	16.5		
CC1CCc2nc(N)c(C#N)c(-c3ccncc3)c2C1 (stereo unspecified)	30.2	16.4 µM [rising, partial curve]	4.11 µM [rising, partial curve, poor fit]
COc1cc(C(=O)NCc2cccc3ccccc23)ccc1OCc1ccccc1	10.3		2.06 µM [rising, full curve]
Cc1ccccc1OCC1Cn2c(nc3c2c(=O)[nH]c(=O)n3C)O1 (stereo unspecified)			29.1 µM [rising, single point]
C=CCOc1ccc(C2/C(=C(\O)c3ccc4c(c3)OCCO4)C(=O)C(=O)N2CCCN2CCOCC2)cc1 (stereo unspecified)	-0.306		18.4 µM [rising, single point]
CCOc1ccccc1N(CC(=O)Nc1cccnc1)S(=O)(=O)c1ccc(C)cc1	14.9		14.6 µM [rising, partial curve, poor fit]
Cc1ccc(-c2nc(CS(=O)(=O)CC(=O)N3CCOCC3)c(C)o2)cc1	5.89		29.1 µM [rising, single point]
CC(=O)c1ccc(NS(=O)(=O)c2c(C)cc(C)cc2C)cc1	-16.3		20.6 µM [falling, single point]
CC(=O)c1cccc(NC(=O)COC(=O)CC2CC3CCC2C3)c1 (stereo unspecified)	-29.9		32.6 µM [falling, partial curve, poor fit]
Cc1cc(C(F)(F)F)nn1Cc1n[nH]c(=S)n1-c1ccc(Cl)cc1	18.7		29.1 µM [falling, single point]

SMILES	cell number change [%]	AC50 [1]	AC50 [2]
COCC(C)N1CCC(n2nccc2NC(=O)CCOc2ccccc2)CC1 (stereo unspecified)	-5.87		0.103 µM [falling, full curve, poor fit]
Cc1noc(C)c1COc1ccc(C(=O)NNC(=O)c2ccccc2F)cc1	-8.9		0.92 µM [rising, full curve, poor fit]
COc1cc(Nc2nc(-c3ccccc3)c3cc(C)ccc3n2)cc(OC)c1OC	-41.1	18.4 µM [falling, single point]	
Cc1ccccc1OCC1Cn2c(nc3c2c(=O)n(C)c(=O)n3C)O1 (stereo unspecified)	-17.9		
Cc1cc(/C=C2\SC(=O)N(C)C2=O)c(C)n1-c1ccc(O)cc1	1.23		3.66 µM [rising, partial curve, poor fit]
CC1(C)O[C@@H]2C[C@H]3[C@@H]4CCC5=CC(=O)C=C[C@]5(C)[C@@]4(F)[C@@H](O)C[C@]3(C)[C@]2(C(=O)CO)O1	-9.21		
C=C(C)CN1C(=O)c2ccccc2C1=O	37.4	18.4 µM [rising, partial curve]	
CC1CC/C(=N/Nc2ccccc2)C(=O)N1 (stereo unspecified)	7.9		0.146 µM [rising, full curve, poor fit]
COc1ccc(C2=NOC(C(=O)NCc3ccc(F)cc3)C2)cc1OC (stereo unspecified)	126	20.6 µM [rising, single point]	
O=c1c(C(c2ccc(O)cc2)c2c(O)nc3n(c2=O)CCCS3)c(O)nc2n1CCCS2	-13.1	0.0231 µM [falling, full curve, poor fit]	0.0058 µM [falling, full curve, poor fit]
CCN1CC(CN(C)Cc2nc(-c3ccc(Cl)cc3)no2)CC1=O (stereo unspecified)	6.73		
COc1ccc(NC(=O)c2cc(-c3ccccn3)nc3c(C)cc(C)cc23)c(C)c1	-5.56		
CCN(Cc1ccccc1)C(c1ccccn1)c1nnnn1C(C)(C)CC (stereo unspecified)	5.51		11.6 µM [rising, partial curve]
CCOc1ccc(C(=O)N(C)C2CCS(=O)(=O)C2)cc1 (stereo unspecified)	-5.4	6.51 µM [falling, single point]	
COc1cccc(N(C(=O)CCl)C(C(=O)NCCc2ccccc2)c2cccs2)c1 (stereo unspecified)	0.243		25.9 µM [falling, single point]
Cc1ccc(O)c(NC(=O)/C=C/C(=O)O)c1			0.206 µM [falling, full curve, poor fit]
CC1(C)C(c2cccs2)=[N+]([O-])C2(CCCCC/C2=N\NC(N)=O)N1O (stereo unspecified)	-44.8	32.6 µM [falling, single point]	
COc1ccc(CC(=O)Nc2cccc(-c3nnc(-c4ccc(C)cc4)o3)c2)cc1OC	-63	16.4 µM [falling, single point]	29.1 µM [falling, single point]
O=C(NC1CCOC1)c1cc(COc2cccc(C(F)(F)F)c2)on1 (stereo unspecified)	-6.37		6.51 µM [rising, single point]
Cc1ccc(S(=O)(=O)NNC(=O)c2ccc3ccccc3n2)cc1	-14.4		1.84 µM [rising, full curve]

By substructure: the entries above with a nitro group on carbon
SMILES	cell number change [%]	AC50 [1]	AC50 [2]
CCN(C(=O)CN1C(=O)c2ccc([N+](=O)[O-])cc2C1=O)C1CCS(=O)(=O)C1 (stereo unspecified)	2.5		
O=C(CSc1ccccc1[N+](=O)[O-])NC1CCS(=O)(=O)C1 (stereo unspecified)	-8.98	6.51 µM [rising, single point]	5.17 µM [falling, partial curve]
Cc1c(NC(=O)c2ccc3nsnc3c2)cccc1[N+](=O)[O-]	16.5		
